This passage reports binding results from publication PMC11948038, “Evolutionary Pro‐To‐Thr Mutation in the Intrinsically Disordered Domain of ANP32 Family Members Modulates Their Target Binding Modes” (Advanced Science, 2025).

Chains of the proteins cited; added tags and fusions are not shown. Residues count along the entry.
UniProt P99999, residues 2-105: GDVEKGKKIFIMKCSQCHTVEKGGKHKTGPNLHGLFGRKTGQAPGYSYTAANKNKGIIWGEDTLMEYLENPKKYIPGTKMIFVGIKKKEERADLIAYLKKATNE

Results are given in words; binding and its absence hold for the method and conditions named. Some results given as binding are weak or reduced against the parent protein; the word gives no strength.

In the assay the target is cytochrome c (UniProt P99999). Briefly: NMR titration; 15N-labeled Cc titrated with ANP32A_(230-249) or ANP32B_(232-251) peptide, up to 1:6 ratio (Cc:peptide); both purified.

Take EEERGQKRKREPEDEGEDDD [ANP32A_(230-249) peptide]: the binding entry is listed as “binds”.
The result for EEGGKGEKRKRETDDEGEDD [ANP32B_(232-251) peptide] reads “binds”.
